Assay results taken from patent US20200325139A1, “NEW ANTIBIOTICS TARGETING MYCOBACTERIA” (priority 2017, published 2020).
For at least one compound, name, drawing or mass did not settle the structure.

Columns and labels:
[1] = system: Ldtfm; assay: Inhibition of L,D-transpeptidase by DBOs, residual nitrocefin hydrolysis; format: biochemical, E. faecium; conditions: for Residual activity of Ldtfm following pre-incubation: 260 min at 37° C.
[2] = system: BlaMab; assay: Carbamoylation of β-lactamase by DBOs, nitrocefin spectrophotometry; format: biochemical, Mycobacterium abscessus; conditions: 20° C., nitrocefin 100 μM, MES pH 6.4
[3] = Inhibitor/Ldtfm molar ratio 1, enzyme 10 μM
[4] = Inhibitor/Ldtfm molar ratio 2.5, enzyme 10 μM
[5] = Inhibitor/Ldtfm molar ratio 5, enzyme 10 μM
[6] = Inhibitor/Ldtfm molar ratio 10, enzyme 10 μM
[7] = Inhibitor/Ldtfm molar ratio 20 (DBO 200 μM, enzyme 10 μM)

Row | Compound | Residual activity of Ldtfm following pre-incubation [1, 3] | Residual activity of Ldtfm following pre-incubation [1, 4] | Residual activity of Ldtfm following pre-incubation [1, 5] | Residual activity of Ldtfm following pre-incubation [1, 6] | Residual activity of Ldtfm following pre-incubation [1, 7] | Inhibition of L,D-transpeptidase Ldtfm (in words) ([1]; residual rate of nitrocefin hydrolysis after pre-incubation) | Carbamoylation efficacy of β-lactamase BlaMab [2]
1 | O=C1N2C[C@@H](CC[C@H]2Cn2cc(-c3ccccc3)nn2)N1OS(=O)(=O)[O-].[Na+] [Compound 1a.i.16] | 74.8% | 47.0% | 22.6% | 6.0% | 1.7% | similarly active | (2.3 ± 0.1) × 10^5 M^−1 s^−1
2 | O=C(O)CCc1cn(C[C@@H]2CC[C@@H]3CN2C(=O)N3OS(=O)(=O)[O-])nn1.[Na+] [Compound 1a.i.14] | 100.7% | 97.1% | 92.0% | 79.2% | 65.3% | – | (1.8 ± 0.2) × 10^3 M^−1 s^−1
3 | COCc1cn(C[C@@H]2CC[C@@H]3CN2C(=O)N3OS(=O)(=O)[O-])nn1.[Na+] [Compound 1a.i.13] | 93.9% | 81.5% | 65.2% | 40.9% | 16.9% | – | (2.0 ± 0.1) × 10^3 M^−1 s^−1
